## Primary screen of a compound library

Data taken from ChEMBL document CHEMBL3988442, “University of Dundee, Small-Polar-MMV Screening Library” (2021).

T. brucei: 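Whole-parasite assay of Trypanosoma brucei over 72 hours; the read-out is not stated. Tested at 30 µM. Higher reads as stronger inhibition (inferred: compounds with an IC50 in retests scored well above the rest). Values scatter widely below zero; nearly all retest evidence comes from the higher of the two concentrations used. Size under these conditions: about 64,000 compounds, about 940 of them at 50% or above in at least one test.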
Toxoplasma: 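Assay of Toxoplasma gondii numbers, read through their beta-galactosidase reporter with a colour substrate. Concentration: 10 µM. Higher reads as fewer parasites (inferred from which compounds were picked for retests). Of about 67,000 compounds tested this way, about 260 (0.38%) reached 50% or more in at least one test.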
Leishmania in macrophages: 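Cell assay of Leishmania donovani living inside macrophages; the read-out is not stated. Tested at 30 µM. Higher reads as stronger inhibition (inferred: compounds with an IC50 in retests scored well above the rest). About 69,000 compounds were tested under these conditions; 1.5% (about 1,000) showed 50% or more at least once.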

Values are the deposited “Percent Effect”, in %.
The controls that fix the scale are not given in the record; negative values are as filed.
This is an unselected part of the compounds tested.
Two or more numbers in one place are separate tests of the same structure; such repeats can differ widely.
A dash means the value is not listed here; it may have been measured.

SMILES,T. brucei,Toxoplasma,Leishmania in macrophages
COCc1ncn2c1CN(C(=O)Nc1ccccc1)CC2,-54.79,30.45,1.297
CN1CCOC(C)(C(=O)N2CCN(C3CCCC3)CC2)C1 (centres unmarked),-10.5,-1.311,42.2
CCC(O)CN1CCN(C(=O)CN(C)c2ccc(Cl)cn2)CC1 (centres unmarked),-21.03,-1.475,-3.114
COc1ccc(C(C)NCCc2ccc(NC(C)=O)cc2)c(OC)c1 (centres unmarked),1.349,8.404,1.732
Cc1cccc(NC(=O)CN(C)C(=O)c2scnc2C)n1,-23.31,-68.26,-13.49
CCS(=O)(=O)c1ccc2oc([C@H]3CCN(Cc4cccnc4)C3)nc2c1,-17.5,-4.388,11.03
CC(C)(C)C(=O)Nc1cnn(-c2ccccc2S(C)(=O)=O)c1,-23.07,15.45,4.812
N[C@H]1CN(C(=O)Cc2cc(F)cc(Cl)c2)C[C@@H]1C1CC1,-29.7,5.83,22.15
COc1cccc(CN(C(=O)Nc2nncs2)C2CCC(O)CC2)c1 (centres unmarked),-20.55,2.982,1.528
Cc1cccc(-c2nc(N)nc3c2CN(C(=O)c2cc(C)n[nH]2)C3C)c1 (centres unmarked),90.24,24.08,17.26
CCOc1cc(NC(=O)N2CCC3(CCOCC3)C2)ccc1C,-1.681,4.016,7.422
Cc1cc(C)n(CC(C)NCc2nc(-c3cccnc3)no2)n1 (centres unmarked),-0.9475,-8.146,-8.448
Cc1cccc(C)c1OC1CN(C(=O)C2CCCN(C(=O)N(C)C)C2)C1 (centres unmarked),-34.85,3.461,-3.924
O=C(O)C(F)(F)F.[H][C@@]12CCN(c3cnccn3)C[C@]1([H])CN(C(=O)CCC)C2,-79.54,10.45,9.396
COCCN1CCOCC12CCN(C(=O)Cc1cccs1)CC2.O=C(O)C(F)(F)F,-14.07,2.451,3.376
CC(C)NS(=O)(=O)c1cc(C(=O)O)cc(-c2ccc3c(c2)OCO3)c1,6.619,7.777,33.11
Cc1noc(C)c1CN1CCC[C@]2(C[C@@H](Oc3ccccn3)CO2)C1.O=C(O)C(F)(F)F.O=C(O)C(F)(F)F,-20.89,2.277,5.763
CC(C)c1ccc(OCCC(=O)N2CCCC(C(N)=O)C2)cc1 (centres unmarked),11.38,-5.65,14.1
O=C(O)C(F)(F)F.O=C1COC2(CCN(S(=O)(=O)C3CC3)CC2)CN1c1cccnc1,-21.58,59.25,-7.696
Cc1ccc(CNC(=O)CCN2CCN(c3ccccn3)CC2)n1C,-37.15,5.251,-22.98
COCCCNC(=O)c1cc(C(C)C)nc(N2CCCC2)n1,-9.807,5.589,42.55
CCc1nc(C2CCCN2CCCc2nc3ccccc3o2)no1 (centres unmarked),-23.49,9.825,15.7
Cc1cc(C2CCCN2C(=O)NCc2ccccn2)on1 (centres unmarked),-20.66,-,6.881
Cc1csc(N2CCCN(C(=O)c3c(C)noc3C)CC2)n1,-1.62,-5.5,10.83
CCOC(=O)N1CCc2ccccc2C12CCNCC2.Cl,-45.47,3.854,0.5062
CCc1cc(N(C)Cc2ccncn2)n2nc(C)c(C)c2n1,25.26,10.93,-20.22
CCCN1CCN(CC(O)c2ccc(OC(F)(F)F)cc2)CC1 (centres unmarked),-5.365,-5.392,27.81
NC(=O)C1Cn2ccnc2C2(CCN(C(=O)c3ccncc3)CC2)O1 (centres unmarked),-78.98,-25.31,7.701
CCc1cc(-c2nccn2-c2ccccc2CN2CCOCC2)on1,5.051,-1.162,24.03
O=C(Cc1cccnc1)NCCS(=O)(=O)c1ccccc1F,2.882,5.341,5.544
COc1ccccc1CN(Cc1cccnc1)Cc1nccs1,-26.58,2.133,1.672
O=C(O)c1nnn(-c2ccc(F)c(F)c2)c1-c1ccncc1,-20.1,-1.156,25.27
CC(C)[C@H]1CN(Cc2c[nH]nn2)C[C@@H]1NC(=O)C1CCOCC1,-12.61,11.99,7.995
COCC1CN(C(=O)Nc2cc(Cl)ccc2F)CCO1 (centres unmarked),5.442,1.872,-0.1684
O=C(CCc1cc(O)no1)N1CCC(Cc2ccc(F)cc2)CC1,-48.14,5.606,-4.99
Cc1n[nH]c(C)c1CNC(=O)N(Cc1ccccc1)CC(C)(C)O,-1.532,1.418,28.26
CS(=O)(=O)CCSCc1ccc(Br)c(F)c1,23.75,0.1827,-17.77
[H][C@@]12CCC(=O)N(CCc3ccccc3)[C@]1([H])CCN(c1ncccc1F)C2,-25.81,-1.644,0.1985
O=C([C@@H](O)Cc1ccccc1)N1CCCn2cncc2C1,34.7,-48.82,13.9
COCC1CC2(CCN(C(N)=O)CC2)CN1Cc1csc(C)n1.O=C(O)C(F)(F)F (centres unmarked),-,-10.6,16.24
O=C(O)c1ccc(CNC(=O)C2CCN(Cc3ccco3)CC2)s1,-76.68,21.74,13.52
CCOc1ccc(Cc2c(O)nc(SC)n(-c3ccccc3)c2=O)cc1,-24.74,-2.411,30.02
CC(C)n1cc(C(=O)N2CCN(c3cccc(C(F)(F)F)c3)CC2)cn1,20.2,-38.25,9.971
CN1CCC(N(C)CCC(=O)N2CCN(Cc3cccc(F)c3)CC2)C1 (centres unmarked),-39.74,1.839,18.28
CC1CN(C)c2ccccc2N(C(=O)c2c[nH]c(C(C)C)n2)C1 (centres unmarked),-0.3101,12.2,-14.68
O=C(NCCn1nc2ccccn2c1=O)c1cccc2[nH]ncc12,-13.07,-5.94,-5.475
OC(CNCCn1cccn1)c1ccc(F)c(F)c1 (centres unmarked),31.38,-4.132,21.49
COc1ccc(C(C)NC(=O)c2nn(C)c(C)c2Br)cc1 (centres unmarked),-5.708,0.2742,27.46
CC(C)n1nc(CNc2ncccn2)c2c1CN(C)CC2.O=C(O)C(F)(F)F.O=C(O)C(F)(F)F.O=C(O)C(F)(F)F,-12.79,-7.747,12.83
O=C(NCc1ccc(F)cc1)NCC(O)(c1cccs1)C1CC1 (centres unmarked),0.2361,-0.3861,-6.551 and 0.2672
CC(C)c1ccc(S(=O)(=O)NC2CCN(CC(F)(F)F)C2)cc1 (centres unmarked),-111.7,-72.17,20.88